Results on 2 substances are retold here after publication PMC10239413.

Sequences of proteins named here, by UniProt entry; tags and fusion partners are left off.
UniProt P54252: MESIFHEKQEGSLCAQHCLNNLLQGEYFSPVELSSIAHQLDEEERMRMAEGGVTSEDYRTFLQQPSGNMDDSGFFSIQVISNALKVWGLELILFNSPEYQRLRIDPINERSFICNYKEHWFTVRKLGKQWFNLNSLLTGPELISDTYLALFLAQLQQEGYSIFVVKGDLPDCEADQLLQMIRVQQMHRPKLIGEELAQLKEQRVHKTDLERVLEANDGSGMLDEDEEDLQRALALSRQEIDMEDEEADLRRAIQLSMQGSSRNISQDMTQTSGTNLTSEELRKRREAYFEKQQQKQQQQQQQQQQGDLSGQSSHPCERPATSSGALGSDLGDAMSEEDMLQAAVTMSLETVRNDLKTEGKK
UniProt Q14457: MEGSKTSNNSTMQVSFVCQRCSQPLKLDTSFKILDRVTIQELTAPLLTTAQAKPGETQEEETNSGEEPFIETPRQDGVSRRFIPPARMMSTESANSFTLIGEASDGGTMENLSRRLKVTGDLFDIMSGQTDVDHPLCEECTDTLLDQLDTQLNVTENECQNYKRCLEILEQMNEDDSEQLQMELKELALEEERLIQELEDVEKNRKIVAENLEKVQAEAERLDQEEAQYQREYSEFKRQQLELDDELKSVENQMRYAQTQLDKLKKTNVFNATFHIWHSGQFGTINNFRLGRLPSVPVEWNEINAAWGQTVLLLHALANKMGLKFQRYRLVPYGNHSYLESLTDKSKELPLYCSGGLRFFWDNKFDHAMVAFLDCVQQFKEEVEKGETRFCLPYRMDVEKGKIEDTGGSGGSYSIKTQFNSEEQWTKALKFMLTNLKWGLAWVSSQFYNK

These are yes or no findings as the source states them, for the method shown. Binding seen in cells or lysates may run through a third protein. Some entries that bind do so weakly or less than the wild type.

The target in assay [1] is ataxin-3 (human (endogenous in T24 and EJ)) (UniProt P54252). The assay is described as follows: co-IP; endogenous proteins in lysates of T24 and EJ cells; primary antibody (anti-VCP, anti-Beclin 1 or anti-ataxin-3) overnight at 4 °C, protein A + G magnetic beads, western blot; cells also with circHIPK3 overexpression (Fig. 6C) or treated with DBeQ 20 μM, 12 h (Fig. 5H). On the technique in general: In western blotting, separated proteins are transferred to a membrane and probed.

Assay [2] has as its target Beclin 1 (human (endogenous in T24 and EJ)) (UniProt Q14457). The assay is described as above.

With Beclin 1 (from UniProt Q14457 1-450), the binding result in assay [1] was “binds”.

Regarding “Valosin-containing protein (from UniProt P55072 1-806)”, the binding result in assay [2] is reported as “binds”.
